Laboratory results from PubChem BioAssay AID2685 (National Center for Advancing Translational Sciences (NCATS), 2010).
Screen size: about 320,000 compounds; about 2,100 (0.66%) were called active. Inconclusive results, whose numbers are uncertain, are shown with a selection of clear calls. Calls come from the whole dose curve; as a rule, active = well fitted inhibition curve with a large enough effect in the signal ratio, with a control signal flat (not every such curve was filed as active); inconclusive = small, poorly fitted or top-dose-only effect, or effect the other way, or a change in a side signal; inactive = flat fitted curve, though single readings scatter; the % refers to the signal ratio. Potencies of inconclusive entries are doubtful fits and often do not repeat.

Assay: qHTS Assay for Lipid Storage Modulators in Drosophila S3 Cells
Conditions: BODIPY lipid droplet fluorescence, 18-24 h, cells fed with added oleic acid; lipid storage change, negative = inhibition: at 46.1 µM (top of the series) unless noted
Method in brief: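 Laser-scanning cytometry quantifies lipid droplet accumulation (500–530 nm total intensity; droplet/cell object ratio) in oleic acid-fed (400 uM added) Drosophila S3 cells treated with a concentration series. 20 uM Triacsin C defined 100% inhibition.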
% is set by controls: 0 for no effect and ±100 for the full control effect; potency is the fitted concentration of half-maximal effect.

SMILES | Potency | lipid storage change, negative = inhibition
COc1cc([N+](=O)[O-])cc(/C=N/NC(=O)C(C)Nc2cccc3ccccc23)c1O (stereo not drawn) | inconclusive: 18.4 µM [activator, single point] | –
C#CCOCCOCCOCCNc1nc(N2CCN(C(=O)Cn3cc(CCCCN)nn3)CC2)nc(N2CCN(C(=O)[C@H](CCCCN)n3cc(CCC(=O)O)nn3)CC2)n1 | inconclusive: 0.116 µM [falling, full curve, poor fit] | –
CCCCN(C(=O)c1ccc(NC(=O)C(C)C)cc1)c1ccccc1 | – | inconclusive: 17.1%
Cc1nc(N2CCOCC2)c2oc3ccccc3c2n1 | – | inconclusive: 38.4%
COc1ccc(OC)c(/C=N/NC(=O)CN2CCSCC2)c1 | inconclusive: 20.6 µM [activator, partial curve] | –
CCOC(=O)CSc1nnc(-c2ccccc2NC(=O)c2ccccc2)o1 | – | inconclusive: 6.73%
NC(=O)c1ccc(NC(=O)CN2CCN(S(=O)(=O)c3ccc4c(c3)OCCO4)CC2)cc1 | inconclusive: 0.0366 µM [falling, full curve, poor fit] | –
Cc1ccccc1OCC(=O)Nc1cnn(CCCC(=O)O)c1 | inconclusive: 29.1 µM [activator, single point] | –
COc1ccc2oc(=O)c(C(=O)Nc3ccccc3-c3ccccc3)cc2c1 | – | inconclusive: -1.73%
COc1cc2nc(CN(C)Cc3ccc(Cl)cc3)[nH]c(=O)c2cc1OC | inconclusive: 5.8 µM [rising, single point] | –
Cc1cc(C)nc(SCCCNCc2ccc(Br)cc2)n1 | inconclusive: 29.1 µM [falling, single point] | –
CC(C)C1N(c2ccccc2)C(N)=C(C#N)C1(C#N)C#N (stereo not drawn) | inconclusive: 18.4 µM [rising, single point] | –
Cc1nc(N/N=C/c2ccc(Br)cc2)cc(N2CCOCC2)n1 | – | inconclusive: -6.6%
CCOC(=O)C1CN(S(=O)(=O)c2ccc(Cl)cc2)c2cc(S(=O)(=O)CC)ccc2O1 (stereo not drawn) | – | inconclusive: -21.8% [at 9.22 µM]
c1ccc(COc2nsnc2N2CCOCC2)cc1 | – | inconclusive: -35.7%
Cc1cccc(C)c1OCC(=O)NNC(=O)CCNC(=O)c1ccco1 | – | inconclusive: 8.99%
Cc1cccc2cc(CN(Cc3nnnn3Cc3ccccc3)C3CCCC3)c(=O)[nH]c12 | inconclusive: 0.82 µM [activator, partial curve] | –
CC(=O)Nc1ccc(C(=O)COC(=O)C2CC2C)c(F)c1 (stereo not drawn) | – | inconclusive
COC(=O)c1cc(NC(=O)c2ccc(OC)cc2)c(=O)oc1C | – | inconclusive: 6.45%
COc1ccc(NC(=O)CSc2nnc(Cc3cccs3)n2C)cc1 | – | inconclusive
CCC1(c2ccc(F)cc2)NC(=O)N(CC(=O)NCc2ccccc2Cl)C1=O (stereo not drawn) | – | inconclusive: 11.9%
CN(CC(=O)Nc1cccc2ccccc12)C(=O)c1ccc(F)cc1F | inconclusive: 20.6 µM [activator, partial curve] | –
CCN(C(=O)CSc1nnc(-c2ccco2)n1CC)c1c(N)n(Cc2ccccc2)c(=O)[nH]c1=O | – | inconclusive: 66.4%
CCCCNC(=O)CN1C(=O)NC(Cc2ccccc2)(Cc2ccccc2)C1=O | – | inconclusive: 95%
COc1ccc(C2=NOC(Cn3nc(C(=O)NCc4ccc5c(c4)OCO5)cc3-c3ccccc3)C2)cc1 (stereo not drawn) | inconclusive: 0.517 µM [falling, full curve] | –

Quoted at random: 3 compounds from above
SMILES | Potency | lipid storage change, negative = inhibition
Cc1nc(N/N=C/c2ccc(Br)cc2)cc(N2CCOCC2)n1 | – | inconclusive: -6.6%
Cc1cccc(C)c1OCC(=O)NNC(=O)CCNC(=O)c1ccco1 | – | inconclusive: 8.99%
Cc1cc(C)nc(SCCCNCc2ccc(Br)cc2)n1 | inconclusive: 29.1 µM [falling, single point] | –

(continued)

SMILES | Potency | lipid storage change, negative = inhibition
O=C(NC1CCCCC1)C(c1ccccc1F)N(Cc1ccco1)C(=O)Cn1nnc2ccccc21 (stereo not drawn) | inconclusive: 4.61 µM [falling, full curve, poor fit] | –
CCCn1c(SCC(=O)Nc2sc(C)c(C)c2C(=O)OC)nc2c1c(=O)n(C)c(=O)n2C | inconclusive: 1.16 µM [activator, partial curve] | –
CC(NC(=O)c1ccc2c(c1)OCO2)c1ccccc1 (stereo not drawn) | inconclusive: 16.4 µM [activator, partial curve] | –
COc1cccc(NC(=O)c2ccc3c(O)c(S(=O)(=O)c4ccccc4)c(=O)[nH]c3c2)c1 | – | inconclusive: 103%
COc1ccccc1C(=O)N(Cc1ccccc1)c1ccc(C)cc1 | – | inconclusive: -4.3%
CCc1cc(C(=O)Cc2nc3ccccc3[nH]2)c(O)cc1O | – | inconclusive: 26.3%
CC(C)(C)NC(=O)C(OC(=O)Cn1nnc(-c2ccc(F)cc2)n1)c1ccncc1 (stereo not drawn) | – | inconclusive: -42%
CC(C)(C)c1ccc(-c2cc(-c3ccccc3O)[nH]n2)cc1 | – | inconclusive: -72.5%
Cc1cccc(NC(=O)c2cc(S(=O)(=O)N3CCCCC3)c[nH]2)c1C | – | inconclusive: 19.5%
O=C(NCC1CCCO1)C1CC(=O)N(C2CCCC2)C1 (stereo not drawn) | inconclusive: 0.0046 µM [falling, full curve, poor fit] | –
COc1cc(CN(C(=O)c2cc3ccccc3oc2=O)C2CCS(=O)(=O)C2)cc(OC)c1OC (stereo not drawn) | – | inconclusive: 37.3%
O=C(CSc1ccc(Cl)cc1)Nn1cnnc1 | active: 16.4 µM | –
COCCn1c(C)cc(C(=O)CSc2ccc(NC(C)=O)cc2)c1C | – | inconclusive: 7.34%
Cc1ccc(C(=O)OC(C)C(=O)c2cc(C)c(C)cc2C)o1 (stereo not drawn) | – | inconclusive: 12.8%
COc1ccc(C(=O)N2CCN=C2SC)cc1 | inconclusive: 6.51 µM [falling, single point] | –
COc1cc(C(=O)Nc2cccc(NC(=O)c3cccs3)c2)cc(OC)c1OC | inconclusive: 7.31 µM [falling, partial curve, poor fit] | –
COc1cc2c(cc1OC)C1=C(C#N)CN(C3CCCCC3)CN1CC2 | – | inconclusive: 64.7% [activator]
Cc1nnc(SCC(=O)Nc2cc(C(N)=O)cc(C(N)=O)c2)n1-c1ccccc1 | – | inconclusive: 45.2%
CCc1c(C)nc2cc(-c3cccc(Br)c3)[nH]n2c1=O | inconclusive: 20.6 µM [falling, partial curve] | –
O=C(CCC(=O)c1ccc(Cl)cc1)OCc1nc2ccsc2c(=O)[nH]1 | – | inconclusive: -0.183%
CCOc1ccc(NC(=O)CN2CCCC2c2cccs2)cc1S(=O)(=O)N1CCCCC1 (stereo not drawn) | – | inconclusive: 7.32%
CCOC(=O)c1c(C)[nH]c(C(=O)OCC(=O)Nc2cc(Cl)ccc2OC)c1C | – | inconclusive: 34.1%
CC(=O)NC(CC(=O)Nc1cccc(S(=O)(=O)N2CCOCC2)c1)c1ccccc1 (stereo not drawn) | – | inconclusive
O=C(CCSCCC(=O)NCCN1CCOCC1)NCCN1CCOCC1 | inconclusive: 3.66 µM [falling, full curve] | –
O=C(c1cc(COc2c(F)cccc2F)on1)N1CCCCCC1 | inconclusive: 23.1 µM [falling, single point] | –

SMILES | Potency | lipid storage change, negative = inhibition
CCn1cnc2c(oc3ccccc32)c1=O | – | inconclusive: -1.6%
COc1ccc2oc(C(=O)OC(C)C(=O)NC3(C#N)CCCCC3)c(C)c2c1 (stereo not drawn) | – | inconclusive: -14.4%
COc1cc2oc(-c3ccc(O)cc3)cc(=O)c2c(OC)c1O | – | inconclusive: 11.1%
CCOc1ccc(NC(=O)C2CCCN(c3nn4c(=O)cc(C)nc4s3)C2)cc1 (stereo not drawn) | inconclusive: 6.51 µM [cytotoxic, partial curve] | –
CCCn1c(CN2CCN(C(C)=O)CC2)nc2cc(S(=O)(=O)N(C)C)ccc21 | – | inconclusive: 205%
O=C(O)c1ccc(-n2nc(-c3ccccc3)c3ccccc3c2=O)cc1 | – | inconclusive: 217%
CC(C)C[C@H](N)c1cn([C@@H](Cc2ccc(O)cc2)C(=O)N2CCNCC2)nn1 | – | inconclusive: -11.5%
Cc1ccc(C)c(OCCC(=O)OC(C)C(=O)Nc2c(C)n(C)n(-c3ccccc3)c2=O)c1 (stereo not drawn) | – | inconclusive: 1.14%
CCN(Cc1ccccc1)C(c1ccc(C)cc1)c1nnnn1C(C)(C)C (stereo not drawn) | inconclusive: 0.146 µM [falling, full curve, poor fit] | –
O=C(CCCN1CC=C(n2c(=O)[nH]c3ccccc32)CC1)c1ccc(F)cc1 | inconclusive: 23.1 µM [activator, partial curve, poor fit] | –
CNC(=O)c1c(NC(=O)CCS(=O)(=O)c2ccc(Cl)cc2)sc2c1CCN(C(=O)OC)C2 | – | inconclusive: 23.1%
CSc1nc(N2CCN(C)CC2)c2c(c1C#N)CC(C)(C)OC2 | – | inconclusive: -17.2%
CCCCC(=O)Nc1cccc(-c2nc3ncccc3o2)c1 | – | inactive: 18.9%
COc1ccc(OCc2nn3c(-c4ccccn4)nnc3s2)cc1 | inconclusive: 5.17 µM [activator, full curve, poor fit] | –
C=CCN(CC=C)C(=S)Nc1ccc(OC)c(OC)c1 | – | inconclusive: 42.5%
O=C(CN1CCCC1)Nc1sc2c(c1C(=O)Nc1ccc(Br)cc1)CCC2 | – | inconclusive: 4.64%
CCC1CCCCN1S(=O)(=O)c1ccccc1 (stereo not drawn) | – | inconclusive: 33.4%
CC(C)n1ncc2c(C(=O)Nc3ccc(CC#N)cc3)cc(C3CC3)nc21 | – | inconclusive: 11.8%
COc1ccc(NC(=O)CCCNC(=O)Cn2cnc3sc4c(c3c2=O)CCCC4)cc1OC | inconclusive: 29.1 µM [activator, single point] | –
N/C(=N\OC(=O)C(c1ccccc1)c1ccccc1)c1ccncc1 | inconclusive: 6.51 µM [activator, partial curve] | –
CCOc1ccc(CCNC(=O)c2cccc(S(=O)(=O)N3CCCCC3)c2)cc1OCC | – | inconclusive
COc1ccc(S(=O)(=O)Nc2ccc(-c3ccc4nnc(C)n4n3)cc2)c(OC)c1 | inconclusive: 29.1 µM [falling, single point] | –
Cc1ccc(S(=O)(=O)NCCC(=O)N2CCN(S(=O)(=O)c3ccccc3)CC2)cc1C | – | inconclusive: 34.2%
